{"sequences": {"note": "Sequences of proteins named here, by UniProt entry; tags and fusion partners are left off.", "UniProt P53350, whole entry, looked up": "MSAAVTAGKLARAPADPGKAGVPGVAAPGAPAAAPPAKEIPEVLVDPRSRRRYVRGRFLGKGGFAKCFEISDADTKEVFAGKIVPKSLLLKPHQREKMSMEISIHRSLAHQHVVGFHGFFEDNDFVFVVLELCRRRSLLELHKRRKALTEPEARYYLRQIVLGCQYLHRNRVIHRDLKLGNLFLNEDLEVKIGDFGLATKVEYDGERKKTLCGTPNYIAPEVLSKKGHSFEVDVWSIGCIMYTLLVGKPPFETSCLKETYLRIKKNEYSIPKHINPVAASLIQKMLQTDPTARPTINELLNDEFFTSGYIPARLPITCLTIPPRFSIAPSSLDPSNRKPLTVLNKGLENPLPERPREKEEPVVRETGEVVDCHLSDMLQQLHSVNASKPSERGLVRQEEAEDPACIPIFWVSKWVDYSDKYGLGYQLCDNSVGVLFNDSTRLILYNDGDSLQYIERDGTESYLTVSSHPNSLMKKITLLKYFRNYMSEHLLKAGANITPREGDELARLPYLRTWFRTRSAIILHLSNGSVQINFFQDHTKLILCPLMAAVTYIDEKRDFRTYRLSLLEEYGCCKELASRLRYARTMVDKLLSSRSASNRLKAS"}, "source": "PubChem BioAssay AID720504", "about": "(National Center for Advancing Translational Sciences (NCATS), 2013)", "note": "Hit rate of the full screen: of about 360,000 compounds, about 10,000 (2.8%) were called active. Inconclusive means that the source gave no clear call. Such entries were picked first, then a sample of the others. Calls come from the whole dose curve; as a rule, active = well fitted inhibition curve with a large enough effect; inconclusive = small, poorly fitted or top-dose-only effect; inactive = flat fitted curve, though single readings scatter. A potency beside an inconclusive call is a rough fit, not a confirmed value. % is set by controls: 0 for no effect and ±100 for the full control effect; potency is the fitted concentration of half-maximal effect."}
{"target": "Serine/threonine-protein kinase PLK1 (Homo sapiens) (UniProt P53350)", "experiment": "qHTS for Inhibitors of PLK1-PDB (polo-like kinase 1 - polo-box domain): Primary Screen; note: nearly all actives have a fitted effect of over 65% in size; for max response, negative = inhibition: series mostly up to about 57 µM", "conditions": "Plk1 PBD binding of FITC phosphopeptide, fluorescence polarization"}
{"smiles": "COc1ccc(/C=C2\\Sc3ccc(C(=O)N4CCCC4)cc3N(C)C2=O)cc1OC", "max response, negative = inhibition": "inconclusive: -30.4% [inhibitor]"}
{"smiles": "CCc1nnc(NC(=O)c2cc(-c3ccc(C)o3)nc3ccccc23)s1", "Potency": "inconclusive: 23.8 µM [inhibitor, partial curve]"}
{"smiles": "O=C(O)c1cccc(NN=C2c3ccccc3-c3ccccc32)c1", "Potency": "inconclusive: 21.2 µM [inhibitor, single point]"}
{"smiles": "O=C(Nc1ccc(Br)cn1)c1coc(=O)c(Br)c1", "max response, negative = inhibition": "inactive: -8.48%"}
{"smiles": "O=C(Nc1ccccc1)N1CCc2ccccc2C1", "max response, negative = inhibition": "inactive: -22.7%"}
{"smiles": "COc1cccc(C(=O)Oc2ccc(/C=N/Nc3ccc(C(=O)O)cc3)cc2OC)c1", "Potency": "inconclusive: 37.7 µM [inhibitor, single point]"}
{"smiles": "N=C1/C(=C\\c2ccc(OC(=O)c3ccc(F)cc3)cc2)C(=O)N=C2SC(N3CCOCC3)=NN12", "Potency": "inconclusive: 18.9 µM [inhibitor, partial curve]"}
{"smiles": "O=S1(=O)CCN(Cc2ccccn2)CC1", "max response, negative = inhibition": "inactive: 4.4%"}
{"smiles": "COc1ccc(OCC(=O)Nc2ccc3c(c2)nc(CCN2CCCCC2)n3C)cc1", "Potency": "inconclusive: 29.9 µM [inhibitor, single point]"}
{"smiles": "C[C@H](CO)N1C[C@H](C)[C@@H](CN(C)C(=O)Nc2ccccc2)Oc2c(NS(=O)(=O)c3cn(C)cn3)cccc2C1=O", "max response, negative = inhibition": "inconclusive: -36.3% [inhibitor]"}
{"smiles": "O=C(O)CCNc1ccc(NCCC(=O)O)c2c1C(=O)c1ccccc1C2=O", "Potency": "inconclusive: 18.9 µM [inhibitor, partial curve]"}
{"smiles": "CC(C)CN(C)C(=O)CC1C(=O)NCCN1C", "note": "(configuration not stated)", "max response, negative = inhibition": "inactive: -14.1%"}
{"smiles": "COCc1nnc(NC(=O)C2CC(=O)N(c3ccc(C)c(Cl)c3)C2)s1", "note": "(configuration not stated)", "Potency": "inconclusive: 29.9 µM [inhibitor, partial curve]"}
{"smiles": "O=C(c1ccccc1)N1CCN(S(=O)(=O)c2cccc(NS(=O)(=O)c3ccccc3)c2)CC1", "Potency": "inconclusive: 21.2 µM [inhibitor, single point]"}
{"smiles": "COc1ccc(-c2nc(C#N)c(NCCc3ccccc3)o2)cc1", "max response, negative = inhibition": "inactive: 1.68%"}
{"smiles": "c1ccc2nc(-c3ccc(-n4ccnc4)cc3)ccc2c1", "max response, negative = inhibition": "inactive: -7.9%"}
{"smiles": "Cc1cc(C)n2c(SCC(=O)Nc3ccc(F)cc3F)nnc2n1", "Potency": "inconclusive: 21.2 µM [inhibitor, partial curve]"}
{"smiles": "COc1ccc(NC(=O)c2noc3c2CCC3)cc1", "max response, negative = inhibition": "inconclusive: -33.9% [inhibitor]"}
{"smiles": "O=C(CC1SC(=Nc2ccc(OC(F)F)cc2)N(CCN2CCOCC2)C1=O)Nc1ccc(F)cc1F", "note": "(configuration not stated)", "Potency": "inconclusive: 8.44 µM [inhibitor, single point]"}
{"smiles": "COCCNC(=O)c1cc2c(c(-c3cccc(C#CC(C)(C)O)c3)n1)[C@@H](CCO)N(S(=O)C(C)(C)C)C2", "note": "(some centres not stated)", "Potency": "inconclusive: 21.2 µM [inhibitor, partial curve]"}
{"smiles": "Nc1sccc1C(=O)NCCN1CCOCC1", "Potency": "inconclusive: 33.6 µM [inhibitor, partial curve]"}
{"smiles": "Cc1nc(-c2ccc(O)c(O)c2)cs1", "Potency": "inconclusive: 23.8 µM [inhibitor, partial curve]"}
{"smiles": "C/C(=N\\NC(=O)c1ccc(F)cc1)c1ccc(NC(=O)Cc2ccccc2)cc1", "max response, negative = inhibition": "inactive: -3.45%"}
{"smiles": "COc1ccc(/C=C(/C(=O)c2cccs2)N2C=CC=CC2=C(C#N)C#N)cc1", "Potency": "active: 5.97 µM"}
{"smiles": "CN(CC(=O)Nc1ccc(Cl)cc1)C(=O)CNC(=O)Cc1cccc2ccccc12", "max response, negative = inhibition": "inactive: -17.5%"}
{"smiles": "Cc1cc(OCCn2cnc3ccccc3c2=O)cc(C(C)C)c1", "Potency": "active: 21.2 µM"}
{"smiles": "O=S(=O)(Cc1ccccc1)NCc1ccccn1", "max response, negative = inhibition": "inactive: -5.05%"}
{"smiles": "O=c1[nH]c(CSc2nnc(Nc3ccccc3)s2)nc2ccccc12", "Potency": "active: 26.7 µM"}
{"smiles": "CCCC(=O)Nc1cc(C(=O)O)ccc1Sc1ccc(C)cc1", "Potency": "inconclusive: 13.4 µM [inhibitor, partial curve]"}
{"smiles": "COC(=O)c1sc(N2C(=O)C(O)=C(C(=O)c3ccc(C)o3)C2c2cccs2)nc1C", "note": "(configuration not stated)", "Potency": "active: 26.7 µM"}
{"smiles": "O=C(O)c1cn(-c2ccc(N3CCCC3)c(F)c2)c2c(F)c(F)c(F)cc2c1=O", "Potency": "inconclusive: 21.2 µM [inhibitor, partial curve]"}
{"smiles": "Cc1nn(C)c(C)c1NS(=O)(=O)c1ccccc1Cl", "Potency": "inconclusive: 21.2 µM [inhibitor, partial curve]"}
{"smiles": "CC(C)Cc1nnc(NC(=O)c2cc(-c3ccccc3)nc3ccccc23)s1", "Potency": "inconclusive: 26.7 µM [inhibitor, partial curve]"}
{"smiles": "CCC(CC)NC(=O)c1ccc(NS(=O)(=O)c2ccc3[nH]c(=O)[nH]c3c2)cc1", "max response, negative = inhibition": "inactive: -0.545%"}
{"smiles": "COc1ccc(Br)cc1CNC(=O)C1CCN(C(=O)N(C)C)CC1", "Potency": "inconclusive: 29.9 µM [inhibitor, partial curve]"}
{"smiles": "COc1cc2c3nnc(-c4ccc(F)cc4)c-3cn(Cc3ccccc3F)c2cc1OC", "Potency": "inconclusive: 18.9 µM [inhibitor, partial curve]"}
{"smiles": "CC1CCCC(NC(=O)COC(=O)COc2ccc(Br)cc2)C1C", "note": "(configuration not stated)", "max response, negative = inhibition": "inactive: 4.31%"}
{"smiles": "CCN(CC)Cc1oc(-c2ccccc2)cc1C(=O)O", "Potency": "inconclusive: 23.8 µM [inhibitor, partial curve]"}
{"smiles": "O=C(O)CC(C(=O)O)N1C(=O)/C(=C/C=C/c2ccco2)SC1=S", "note": "(configuration not stated)", "Potency": "active: 2.38 µM"}
{"smiles": "O=C(/C=C/c1ccccc1)n1cnnc1SC/C=C/c1ccccc1", "Potency": "inconclusive: 6.7 µM [inhibitor, partial curve]"}
{"smiles": "COc1ccccc1/C=C/c1onc(C)c1S(=O)(=O)N1CCC(C(=O)NC2CCCCCC2)CC1", "Potency": "inconclusive: 26.7 µM [inhibitor, single point]"}
{"smiles": "O=C(CNc1ccc2ccccc2c1)N/N=C/c1ccncc1", "Potency": "inconclusive: 33.6 µM [inhibitor, single point]"}
{"smiles": "Nc1[nH]ncc1-c1ccc(Cl)cc1", "Potency": "inconclusive: 37.7 µM [inhibitor, single point]"}
{"smiles": "O=C(/C=C/c1ccc2c(c1)OCO2)Nc1c(C(=O)O)[nH]c2ccccc12", "max response, negative = inhibition": "inactive: -12.5%"}
{"smiles": "CCNC(=S)SCCOc1ccccc1C", "Potency": "inconclusive: 26.7 µM [inhibitor, partial curve]"}
{"smiles": "O=C(O)c1ccc(N2Cc3ccccc3C2)cc1O", "Potency": "inconclusive: 26.7 µM [inhibitor, single point]"}
{"smiles": "COC(=O)CC1C(=O)NCCN1C(=S)NC(=O)C(c1ccccc1)c1ccccc1", "note": "(configuration not stated)", "Potency": "inconclusive: 26.7 µM [inhibitor, partial curve]"}
{"smiles": "CC(C)c1ccc(NC(=O)c2snc3ccc(Cl)cc23)cc1", "max response, negative = inhibition": "inactive: -15.5%"}
{"smiles": "Cc1ccccc1NC(=O)CC1SCCNC1=O", "note": "(configuration not stated)", "max response, negative = inhibition": "inactive: -12.9%"}
{"smiles": "COc1ccc(NC(=O)CN(C)C(=O)CSc2ccc3c(c2)OCCO3)cc1", "Potency": "inconclusive: 26.7 µM [inhibitor, partial curve]"}
{"smiles": "CCCc1nnc(NC(=O)C2CC(=O)N(CCc3ccc(F)cc3)C2)s1", "note": "(configuration not stated)", "Potency": "inconclusive: 33.6 µM [inhibitor, partial curve, poor fit]"}
{"smiles": "CCC/C(=N\\NC(=O)C1CC1)c1ccccc1", "max response, negative = inhibition": "inactive: -1.05%"}
{"smiles": "Oc1ccccc1/C=N/n1c2ccccc2c2ccccc21", "max response, negative = inhibition": "inactive: -1.55%"}
{"smiles": "CC1CCCCC1NC(=O)/C(C#N)=C/c1ccccc1F", "note": "(configuration not stated)", "Potency": "inconclusive: 21.2 µM [inhibitor, single point]"}
{"smiles": "CC1(C)N([O-])C(c2ccccc2)=C[N+](=O)C1(C)C", "Potency": "inconclusive: 23.8 µM [inhibitor, partial curve]"}
{"smiles": "COc1ccccc1-c1cccc([C@@H]2C[C@H]3[C@H](CON3C)CN2C(=O)C(C)(C)C)c1", "max response, negative = inhibition": "inactive: -10%"}
{"smiles": "CCc1ccc(NC(=O)Nc2ccc3c(c2)N(C)C(=O)CS3)cc1", "Potency": "inconclusive: 21.2 µM [inhibitor, partial curve]"}
{"smiles": "Nc1n[nH]c(=S)n1/N=C1/C(=O)Nc2ccccc21", "Potency": "active: 26.7 µM"}
{"smiles": "Cc1ccc(N2NC(=O)/C(=C/C=C/c3ccco3)C2=O)cc1C", "Potency": "inconclusive: 29.9 µM [inhibitor, single point]"}
{"smiles": "Nc1nc(SCC(=O)NCCCN2CCOCC2)nc2sc3c(c12)CCC3", "Potency": "inconclusive: 29.9 µM [inhibitor, partial curve]"}
{"smiles": "COc1ccc(OC)c(C(c2nnnn2C(C)(C)C)N2CCc3ccccc3C2)c1", "note": "(configuration not stated)", "Potency": "inconclusive: 9.47 µM [inhibitor, partial curve]"}
{"smiles": "CC(C)COc1ccc(N)cc1OCC(C)C", "Potency": "inconclusive: 29.9 µM [inhibitor, single point]"}
{"smiles": "O=S(=O)(NCCC1=CCCCC1)c1ccccc1Br", "max response, negative = inhibition": "inconclusive: -32.3% [inhibitor]"}
{"smiles": "CCCC(=O)N1CCCC(c2cc(C(=O)Nc3ccc4c(c3)OCO4)no2)C1", "note": "(configuration not stated)", "max response, negative = inhibition": "inactive: -1.72%"}
{"smiles": "Cc1cc(NC(=O)CSc2nnc(C3COc4ccccc4O3)n2N)no1", "note": "(configuration not stated)", "Potency": "active: 7.52 µM"}
{"smiles": "Clc1ccc2c(c1)-c1[nH]ncc1CS2", "Potency": "inconclusive: 33.6 µM [inhibitor, single point]"}
{"smiles": "Cc1ccc(C(=O)Cn2cnc3ccccc3c2=O)cc1", "Potency": "active: 29.9 µM"}
{"smiles": "CCOC(=O)c1c(N)sc(C(=O)N(C)C)c1C", "max response, negative = inhibition": "inactive: -13.5%"}
{"smiles": "O=C(O)c1cc([N+](=O)[O-])cc2c1C=Cc1ccccc1O2", "Potency": "inconclusive: 23.8 µM [inhibitor, single point]"}
{"smiles": "CCCCn1c(=O)[nH]c(=O)c2c1nc(Cn1ncc(Cl)c(Cl)c1=O)n2CCC", "Potency": "active: 29.9 µM"}
{"smiles": "CCOC(=O)c1[nH]c2ccc(F)cc2c1NC(=O)c1cc(OC)c(OC)c(OC)c1", "Potency": "active: 23.8 µM"}
{"smiles": "CCOC(=O)N1CC=C2C(C#N)=C(N)C(C#N)(C#N)[C@H](c3cccs3)[C@H]2C1", "Potency": "inconclusive: 23.8 µM [inhibitor, partial curve]"}
